# Laboratory results reported in the supplement of paper PMC8256030.
# Structures can show the parent of a compound that is named as a salt. The list shows a part of the results. This data set is noisy: repeats of one test often differ as much as different tests do.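 HEK293T cells were given each compound shortly before transfection with a reporter in which red mCherry is followed by the SARS-CoV-2 frameshift element and then GFP in the −1 frame, so GFP appears only after frameshifting.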
# Test system: HEK293T
# Assay: percent viability (nuclei count) relative to control; higher = more viable cells
# Details: 10 µM; 24 h
row,Compound,percent viability [%]
1,OC(CCN1CCCCC1)(c1ccccc1)c1ccccc1 [pridinol],317
2,CC1/C=C/C=C/C=C/C=C/C=C/C=C/C=C/C(OC2O[C@H](C)[C@@H](O)[C@H](N)[C@@H]2O)CC(O)C(C(=O)O)C(O)CC(=O)CC(O)CC(O)CC(O)CC(=O)CCCC(=O)CC(=O)OC1C(C)CC(C)C(O)CC(=O)c1ccc(N)cc1 (stereo partly specified),138
3,CCCCCCCCCCCCCCCC(=O)O[C@@H]1[C@@H](O)[C@@H](O)[C@@H]([C@H](NC(=O)[C@@H]2C[C@@H](CCC)CN2C)[C@H](C)Cl)O[C@@H]1SC [Clindamycin palmitate·HCl],88.8
4,CCN(CC)CC#CCOC(=O)C(O)(c1ccccc1)C1CCCCC1 (stereo unspecified) [oxybutynin],271
5,COc1ccc(OC)c(C(O)CNC(=O)CN)c1 (stereo unspecified) [midodrine],307
6,O=C(O)CNC(=O)CNC(=O)CNC(=O)CSC(=O)c1ccccc1 [betiatide],70.8
7,CN(C)CCn1cnc2c1c(=O)n(C)c(=O)n2C [dimethazan],128
8,CC1=C(C(=O)OC(C)C)C(c2cccc([N+](=O)[O-])c2)C(C(=O)OC2CN(C(c3ccccc3)c3ccccc3)C2)=C(N)N1 (stereo unspecified) [azelnidipine],57.6
9,CC(=O)NO [acetohydroxamic acid],211
10,CCC[C@@H]1C[C@@H](C(=O)N[C@@H]([C@H]2O[C@H](SC)[C@H](O)[C@@H](O)[C@H]2O)[C@H](C)Cl)N(C)C1 [clindamycin],190
11,C/C(=C\C(=O)O)C1CCCCC1 [cicrotoic acid],245
